# According to article doi:10.1101/2021.09.28.462098:
# Sequences of proteins named here, by UniProt entry; tags and fusion partners are left off.
# UniProt Q07335: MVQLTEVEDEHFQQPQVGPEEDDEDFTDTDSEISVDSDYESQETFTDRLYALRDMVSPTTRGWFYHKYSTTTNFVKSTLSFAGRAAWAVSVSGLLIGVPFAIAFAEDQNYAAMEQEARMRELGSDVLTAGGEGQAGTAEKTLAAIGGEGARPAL
# UniProt Q7SG90: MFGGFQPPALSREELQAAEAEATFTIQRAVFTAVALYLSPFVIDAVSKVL
# UniProt P24391: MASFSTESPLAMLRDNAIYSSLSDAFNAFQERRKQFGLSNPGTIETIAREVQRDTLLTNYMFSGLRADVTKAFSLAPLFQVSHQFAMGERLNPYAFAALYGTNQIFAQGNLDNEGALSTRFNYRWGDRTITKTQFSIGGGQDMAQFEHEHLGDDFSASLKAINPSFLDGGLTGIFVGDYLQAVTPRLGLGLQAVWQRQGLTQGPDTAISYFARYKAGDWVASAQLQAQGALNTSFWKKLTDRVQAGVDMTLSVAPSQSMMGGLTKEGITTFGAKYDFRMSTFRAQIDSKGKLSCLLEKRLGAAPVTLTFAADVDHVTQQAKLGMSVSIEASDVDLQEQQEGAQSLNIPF
# Results are given in words; binding and its absence hold for the method and conditions named. Some results given as binding are weak or reduced against the parent protein; the word gives no strength.
# Molecular target: Tom22 with a hexahistidine tag at the C-terminus (Neurospora crassa) (UniProt Q07335)
# Assay: co-purification
row,Substance,binding
1,Tom5 (from UniProt Q7SG90 1-50),binds
2,Tom40 (from UniProt P24391 1-349),binds
